Measurements reported in publication PMC11791114.
Results are given in words; binding and its absence hold for the method and conditions named. In cells and extracts the contact can be indirect. Some results given as binding are weak or reduced against the parent protein; the word gives no strength.

Sequences of proteins named here, by UniProt entry; tags and fusion partners are left off.
UniProt Q3TKT4: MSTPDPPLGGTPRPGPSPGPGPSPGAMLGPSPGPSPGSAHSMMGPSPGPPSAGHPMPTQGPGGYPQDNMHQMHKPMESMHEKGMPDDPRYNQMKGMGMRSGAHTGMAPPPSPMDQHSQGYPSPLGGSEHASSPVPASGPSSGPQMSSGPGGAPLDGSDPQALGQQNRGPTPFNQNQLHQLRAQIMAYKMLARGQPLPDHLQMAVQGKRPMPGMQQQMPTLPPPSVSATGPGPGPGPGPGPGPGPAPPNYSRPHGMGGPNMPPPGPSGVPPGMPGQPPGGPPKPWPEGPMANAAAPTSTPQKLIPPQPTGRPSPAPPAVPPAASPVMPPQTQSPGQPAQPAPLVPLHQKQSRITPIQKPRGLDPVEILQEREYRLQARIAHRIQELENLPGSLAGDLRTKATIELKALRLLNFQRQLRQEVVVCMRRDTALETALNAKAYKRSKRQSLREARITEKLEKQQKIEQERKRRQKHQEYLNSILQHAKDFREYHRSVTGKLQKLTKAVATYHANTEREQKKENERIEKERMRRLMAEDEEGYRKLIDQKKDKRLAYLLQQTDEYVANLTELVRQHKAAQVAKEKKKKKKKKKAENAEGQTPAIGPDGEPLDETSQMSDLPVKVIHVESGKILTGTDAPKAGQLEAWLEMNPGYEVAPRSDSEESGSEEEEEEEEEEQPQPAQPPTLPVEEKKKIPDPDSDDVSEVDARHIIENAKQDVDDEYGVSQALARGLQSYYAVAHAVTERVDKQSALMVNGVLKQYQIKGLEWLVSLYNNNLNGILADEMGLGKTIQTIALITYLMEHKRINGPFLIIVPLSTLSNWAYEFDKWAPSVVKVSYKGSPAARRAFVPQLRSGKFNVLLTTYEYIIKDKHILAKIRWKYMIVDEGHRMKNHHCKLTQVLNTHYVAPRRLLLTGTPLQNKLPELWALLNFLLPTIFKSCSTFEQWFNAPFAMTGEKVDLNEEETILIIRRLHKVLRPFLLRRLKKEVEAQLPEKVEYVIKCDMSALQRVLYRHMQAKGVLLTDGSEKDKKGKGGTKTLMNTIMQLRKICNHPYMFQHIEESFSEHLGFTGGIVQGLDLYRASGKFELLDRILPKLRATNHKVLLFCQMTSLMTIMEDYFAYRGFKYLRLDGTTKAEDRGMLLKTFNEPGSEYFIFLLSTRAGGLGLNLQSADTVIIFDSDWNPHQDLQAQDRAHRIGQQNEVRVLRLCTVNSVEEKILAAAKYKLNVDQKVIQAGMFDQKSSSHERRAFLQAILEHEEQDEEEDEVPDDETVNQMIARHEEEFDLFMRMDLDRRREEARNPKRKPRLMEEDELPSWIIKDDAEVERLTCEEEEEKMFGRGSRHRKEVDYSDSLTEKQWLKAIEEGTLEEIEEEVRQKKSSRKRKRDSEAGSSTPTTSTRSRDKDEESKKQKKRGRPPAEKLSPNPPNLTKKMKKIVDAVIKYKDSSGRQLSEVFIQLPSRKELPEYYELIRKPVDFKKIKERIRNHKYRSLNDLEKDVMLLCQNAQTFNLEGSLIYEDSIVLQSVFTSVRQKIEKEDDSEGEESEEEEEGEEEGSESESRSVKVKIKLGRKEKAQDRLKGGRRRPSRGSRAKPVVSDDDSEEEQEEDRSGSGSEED
UniProt Q61103: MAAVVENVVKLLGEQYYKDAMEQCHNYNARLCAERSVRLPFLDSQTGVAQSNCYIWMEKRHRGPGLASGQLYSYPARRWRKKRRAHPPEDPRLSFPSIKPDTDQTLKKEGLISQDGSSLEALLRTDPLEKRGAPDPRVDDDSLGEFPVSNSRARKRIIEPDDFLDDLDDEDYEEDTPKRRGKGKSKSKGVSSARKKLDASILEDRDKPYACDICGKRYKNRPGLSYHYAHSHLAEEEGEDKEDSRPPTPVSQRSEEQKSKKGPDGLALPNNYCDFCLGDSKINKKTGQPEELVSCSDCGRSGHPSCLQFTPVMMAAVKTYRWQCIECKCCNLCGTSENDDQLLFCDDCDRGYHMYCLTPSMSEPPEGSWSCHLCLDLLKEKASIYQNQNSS
UniProt Q62432: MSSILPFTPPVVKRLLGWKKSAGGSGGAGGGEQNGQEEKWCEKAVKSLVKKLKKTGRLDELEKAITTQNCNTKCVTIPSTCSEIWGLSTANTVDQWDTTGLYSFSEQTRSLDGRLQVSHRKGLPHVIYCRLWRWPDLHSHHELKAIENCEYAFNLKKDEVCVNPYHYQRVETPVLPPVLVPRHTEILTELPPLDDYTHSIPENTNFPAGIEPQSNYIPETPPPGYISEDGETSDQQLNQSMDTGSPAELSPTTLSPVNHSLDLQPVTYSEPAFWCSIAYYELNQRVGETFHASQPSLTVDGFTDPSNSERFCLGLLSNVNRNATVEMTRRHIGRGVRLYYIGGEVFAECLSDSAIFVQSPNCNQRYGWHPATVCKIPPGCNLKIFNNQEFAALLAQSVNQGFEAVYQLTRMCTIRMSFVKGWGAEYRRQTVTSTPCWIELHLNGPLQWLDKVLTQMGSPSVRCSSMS
UniProt P42227: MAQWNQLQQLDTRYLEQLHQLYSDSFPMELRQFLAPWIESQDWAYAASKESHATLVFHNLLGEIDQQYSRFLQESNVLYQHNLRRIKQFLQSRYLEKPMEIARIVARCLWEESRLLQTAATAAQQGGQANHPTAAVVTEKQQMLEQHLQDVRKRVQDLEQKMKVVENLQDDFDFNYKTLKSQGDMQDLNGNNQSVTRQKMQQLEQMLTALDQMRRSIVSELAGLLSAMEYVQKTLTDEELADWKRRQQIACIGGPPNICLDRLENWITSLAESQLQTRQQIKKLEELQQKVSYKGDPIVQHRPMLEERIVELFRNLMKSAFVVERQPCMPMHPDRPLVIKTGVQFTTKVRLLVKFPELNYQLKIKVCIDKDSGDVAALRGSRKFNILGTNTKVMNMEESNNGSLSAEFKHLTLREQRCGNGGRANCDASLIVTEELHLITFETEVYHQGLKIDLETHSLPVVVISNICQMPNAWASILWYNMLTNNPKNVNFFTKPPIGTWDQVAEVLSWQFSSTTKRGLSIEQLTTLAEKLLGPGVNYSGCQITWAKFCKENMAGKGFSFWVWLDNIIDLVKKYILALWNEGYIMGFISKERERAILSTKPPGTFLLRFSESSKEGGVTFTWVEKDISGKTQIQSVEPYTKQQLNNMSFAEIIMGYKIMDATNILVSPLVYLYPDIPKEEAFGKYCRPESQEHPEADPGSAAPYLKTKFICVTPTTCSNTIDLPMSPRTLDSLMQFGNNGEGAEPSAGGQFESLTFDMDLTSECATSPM
UniProt Q02248: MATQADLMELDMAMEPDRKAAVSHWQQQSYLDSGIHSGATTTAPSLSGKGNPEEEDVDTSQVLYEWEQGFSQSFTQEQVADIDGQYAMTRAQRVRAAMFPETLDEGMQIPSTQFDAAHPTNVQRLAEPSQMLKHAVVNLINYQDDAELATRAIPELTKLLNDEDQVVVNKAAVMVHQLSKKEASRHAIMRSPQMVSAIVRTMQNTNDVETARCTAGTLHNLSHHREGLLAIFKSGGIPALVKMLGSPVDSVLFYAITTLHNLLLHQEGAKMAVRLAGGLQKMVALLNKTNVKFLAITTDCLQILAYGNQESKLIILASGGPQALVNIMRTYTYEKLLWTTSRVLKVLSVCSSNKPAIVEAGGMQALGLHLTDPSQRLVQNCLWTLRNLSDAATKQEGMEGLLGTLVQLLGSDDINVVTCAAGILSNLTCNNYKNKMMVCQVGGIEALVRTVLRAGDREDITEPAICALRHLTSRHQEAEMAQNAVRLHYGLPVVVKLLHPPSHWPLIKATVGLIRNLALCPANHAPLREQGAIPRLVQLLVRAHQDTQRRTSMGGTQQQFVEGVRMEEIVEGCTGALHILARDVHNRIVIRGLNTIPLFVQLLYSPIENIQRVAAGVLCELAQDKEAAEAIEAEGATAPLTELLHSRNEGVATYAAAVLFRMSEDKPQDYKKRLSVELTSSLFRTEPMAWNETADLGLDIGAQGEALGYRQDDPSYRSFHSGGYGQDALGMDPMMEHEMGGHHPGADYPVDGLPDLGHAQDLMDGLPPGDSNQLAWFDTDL

What was measured:
[1] = target: BRG1 (mouse (endogenous in E14 ESCs)) (UniProt Q3TKT4); experiment: co-IP; ESC lysate (1% IGEPAL CA-630, 50 mM Tris-HCl pH 8.0, 150 mM NaCl, protease inhibitor), precleared, target-specific antibody or isotype control 2 h at 4 °C, Protein A/G beads overnight at 4 °C, Western blot
[2] = target: FLAG-DPF2 (mouse) (UniProt Q61103); experiment: as above

SMAD2 (from UniProt Q62432 1-467)
binding [1]: binds

STAT3 (from UniProt P42227 1-770)
binding [2]: binds

β-CATENIN (from UniProt Q02248 1-781)
binding [1]: binds
